# PubChem BioAssay AID2685 (National Center for Advancing Translational Sciences (NCATS), 2010)
# Hit rate of the full screen: of about 320,000 compounds, about 2,100 (0.66%) were called active. The inconclusive results got no clear call from the source; some entries with a clear call stand among them for comparison. Calls follow the shape of the dose curve; as a rule, active = well fitted inhibition curve with a large enough effect in the signal ratio, with a control signal flat (not every such curve was filed as active); inconclusive = small, poorly fitted or top-dose-only effect, or effect the other way, or a change in a side signal; inactive = flat fitted curve, though single readings scatter; the % refers to the signal ratio. Potencies beside an inconclusive call are fits to weak or partial responses and may not hold up.
# Test: qHTS Assay for Lipid Storage Modulators in Drosophila S3 Cells
# Details: BODIPY lipid droplet fluorescence, 18-24 h, cells fed with added oleic acid; lipid storage change, negative = inhibition: at 46.1 µM (top of the series) unless noted
# In short: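 Drosophila S3 cells loaded with oleic acid (400 uM, as added) and compounds at several concentrations; lipid droplets imaged by 488-nm laser-scanning cytometry, 500–530 nm intensity and object ratio to cell channel. Percent activity normalized to 20 uM Triacsin C.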
# % is scaled to controls: 0 for no effect and ±100 for the full control effect; potency is read from the fitted curve at half-maximal effect.
Compound,Potency,"lipid storage change, negative = inhibition"
O=C(NCCNCc1ccc(F)cc1)c1ccco1,"inconclusive: 731 nM [falling, full curve, poor fit]",–
CC(=O)OCC(=O)c1c[nH]c2ccccc12,"inconclusive: 2060 nM [falling, partial curve]",–
Cc1nsc(N)c1C(=O)O,"inconclusive: 4610 nM [falling, full curve, poor fit]",–
COc1cc(CNCCc2ccc(S(N)(=O)=O)cc2)ccc1OCC(=O)NC1CCCCC1,"inconclusive: 651 nM [rising, single point]",–
O=C(CSc1n[nH]c(-c2ccncc2)n1)Nc1ccccc1C(F)(F)F,–,inconclusive: 42.3%
O=C(CCCCCN1C(=O)[C@@H]2Cc3ccccc3CN2C1=O)N[C@@H](Cc1ccc(O)cc1)C(=O)O,–,inconclusive: -6.64%
Cc1cc(NS(=O)(=O)N(C)C)ccc1C(C)C,"inconclusive: 73.1 nM [falling, full curve, poor fit]",–
Cc1sc2ncnc(OCC(=O)Nc3ccc4c(c3)OCCO4)c2c1C,"inconclusive: 6510 nM [rising, partial curve, poor fit]",–
O=C(COc1ccccc1)N1CCNC1=O,active: 11600 nM,–
Oc1cccc2ccc(/C=C/c3cccs3)nc12,–,inconclusive: -2.97%
CCCCC(=O)N1CCN(c2nc3ccc(Cl)cc3s2)CC1,"inconclusive: 231 nM [activator, full curve, poor fit]",–
O=C(C1=C[C@@H](C2CCCCC2)C[C@@H](OCc2ccc(CO)cc2)O1)N1CCN(Cc2ccc3c(c2)OCO3)CC1,–,inconclusive: -10.8%
COc1ccc(CN2CCCC(C(=O)Nc3cccc(-n4cccn4)c3)C2)cc1 (stereo not drawn),"inconclusive: 20600 nM [activator, partial curve]",–
CCCn1c(C)cc(/C=C(\C#N)C(=O)OCC(=O)N(C)c2c(N)n(Cc3ccccc3)c(=O)[nH]c2=O)c1C,–,inconclusive
CCOC(=O)N1CCN(CC(O)COc2ccc(C)cc2C(C)(C)C)CC1 (stereo not drawn),"inconclusive: 13000 nM [falling, single point]",–
NC(=O)c1c(NC(=O)CN2C(=O)CCC2=O)sc2c1CCCCC2,–,inconclusive: 30.9%
Cc1cnn(C(=S)NCC2CCCO2)c1 (stereo not drawn),–,inconclusive: -9.33%
O=C(Nc1ccc(Oc2ccccc2)cc1)C1CCCN(c2ncccn2)C1 (stereo not drawn),–,inconclusive: -7.91%
NS(=O)(=O)c1ccc(NC(=O)COc2ncnc3c2cnn3-c2ccccc2)cc1,–,inconclusive: 106%
CCOC(=O)COc1ccc2c(=O)c(-c3ccccc3OC)coc2c1,"inconclusive: 1840 nM [falling, partial curve, poor fit]",–
Cc1ccc(C(C(=O)NC2CCCC2)N(CCCO)C(=O)Cn2nnc(-c3ccc(C)o3)n2)cc1 (stereo not drawn),"inconclusive: 29100 nM [activator, single point]",–
COc1cc(NC(=O)COC(=O)C=C(C)C)c(C)cc1[N+](=O)[O-],–,inconclusive: 27.5%
CCC(NC(=S)NC1CCCCC1)c1ccc(C)cc1 (stereo not drawn),–,inconclusive: -15.9%
COc1ccc(C)cc1NC(=O)c1ccc(NC(=O)CC2SC(N3CCCC3)=NC2=O)cc1 (stereo not drawn),–,inconclusive: 38.2%
COC(=O)c1ccsc1NC(=O)c1ccco1,–,inconclusive: -46.3% [at 0.00295 µM]
COC(=O)CN1C(=O)COc2ccc(S(=O)(=O)N3CCCCCC3)cc21,"inconclusive: 29100 nM [falling, single point]",–

Compound,Potency,"lipid storage change, negative = inhibition"
CN(CC(=O)Nc1cccc(S(=O)(=O)NC2=NCCC2)c1)Cc1cccc(F)c1,–,inconclusive: -37.1%
Cc1ccc(COC(=O)c2nn(-c3ccccc3)nc2N)cc1,"inconclusive: 2910 nM [falling, single point]",–
CCOC(=O)N1CCC(Nc2c(NCCCN3CCN(CC)CC3)c(=O)c2=O)CC1,"inconclusive: 20600 nM [cytotoxic, partial curve]",–
COc1cc(/C=N/Nc2nc(=O)[nH]nc2C)ccc1O,–,inconclusive: 39.4%
O=C(NCc1cccc(Cl)c1)c1ccc2ccccc2n1,–,inconclusive: 222%
Cc1ccccc1NC(=O)c1ccco1,–,inconclusive: -14.6%
CN(c1ccc(C(=O)NCCSC(C)(C)C)cc1)S(C)(=O)=O,–,inconclusive: 18.2%
COc1ccc(NC(=O)c2ccccc2)c([N+](=O)[O-])c1,–,inconclusive: 17.7%
COc1ccc(C(c2nnnn2Cc2ccc(F)cc2)N2CCN(c3ccccc3)CC2)cc1 (stereo not drawn),"inconclusive: 5170 nM [activator, partial curve]",–
CC(=O)OCC(=O)Nc1ccccc1OC(F)F,–,inconclusive: 18.4%
CCOC(=O)C1CCN(C(=O)c2ccc(NS(=O)(=O)c3ccc(F)cc3C)cc2)CC1,–,inconclusive: -8.46%
CCc1ccc(NC(=S)N(CCOC)C2CCN(C(C)=O)CC2)cc1,–,inconclusive: 3.24%
CCCOc1ccc(-c2c(C(=O)N/N=C(\C)c3cccs3)nnn2-c2nonc2N)cc1,–,inconclusive: -100%
C[n+]1cccc2ccc3c(c21)OC(N)=C(C#N)C3c1ccccc1 (stereo not drawn),–,inconclusive: 13.9%
Cc1cc[n+](CC(=O)c2ccc(NC(=O)c3ccccc3)cc2)c2ccccc12,–,inconclusive: 21.4%
Cc1ccccc1C(=O)NNC1CC(=O)N(c2ccc3c(c2)OCCO3)C1=O (stereo not drawn),–,inconclusive: 25.8%
COc1ccccc1N(O)C1CC(=O)N(c2ccc(F)cc2)C1=O (stereo not drawn),–,inconclusive: 45.7%
Cc1ccc(S(=O)(=O)N2CCCCC2)cc1C(=O)OC(C)C(=O)NCC1CCCCC1 (stereo not drawn),–,inconclusive
CC1=C(C(=O)O)N2C(=O)C(NC(=O)c3nn(C)cc3Cl)C2SC1 (stereo not drawn),–,inconclusive: 26.9%
O=C(Nc1nnc(-c2ccco2)o1)c1cccc(Cl)c1,–,inconclusive: -23.9%
COC(=O)c1ccc(CN2C(=O)NC(Cc3c[nH]c4ccccc34)C2=O)cc1 (stereo not drawn),–,inconclusive: 12.1%
CC(C)NC(=O)c1ccc(-c2cc(C(F)(F)F)ccc2Cl)o1,–,inconclusive: -19.3%
Cc1cc(C(=O)CSc2nnnn2C)c(C)n1CCc1ccc(F)cc1,–,inconclusive: 16.6%
O=C(NCCc1ccccc1)C1CCC(CNS(=O)(=O)c2ccccc2)CC1 (stereo not drawn),–,inconclusive: -87.5%
COc1ccc(CNC(=O)C2CCCN2C(=O)NC2CCCCC2)cc1 (stereo not drawn),–,inconclusive: 75.3%
COc1ccc(-c2noc(CCC(=O)N(C)c3cccc(C)c3)n2)cc1,"inconclusive: 164 nM [rising, full curve, poor fit]",–

# Some of the entries so far, with tabs.
Compound	Potency	lipid storage change, negative = inhibition
CN(CC(=O)Nc1cccc(S(=O)(=O)NC2=NCCC2)c1)Cc1cccc(F)c1	–	inconclusive: -37.1%
Cc1ccccc1NC(=O)c1ccco1	–	inconclusive: -14.6%
COc1ccc(C(c2nnnn2Cc2ccc(F)cc2)N2CCN(c3ccccc3)CC2)cc1 (stereo not drawn)	inconclusive: 5170 nM [activator, partial curve]	–
Cc1cc[n+](CC(=O)c2ccc(NC(=O)c3ccccc3)cc2)c2ccccc12	–	inconclusive: 21.4%

# Continuation.

Compound,Potency,"lipid storage change, negative = inhibition"
C=CCC1c2cccc(C(=O)O)c2C(=O)N1c1cccc(OC)c1 (stereo not drawn),"inconclusive: 4.6 nM [falling, full curve]",–
CCCC(=O)c1cc2ccccc2oc1=O,–,inconclusive: 7.02%
CC(Nc1ccc(S(=O)(=O)N2CCN(C)CC2)cc1[N+](=O)[O-])c1ccccc1 (stereo not drawn),–,inconclusive
COc1ccc(C(=O)N/C(=C\c2cn(C)c3ccccc23)C(=O)N2CCOCC2)cc1,–,inactive
COc1cccc(NC(=S)N2CCN(S(=O)(=O)c3ccccc3)CC2)c1,"inconclusive: 29.1 nM [activator, full curve, poor fit]",–
CC(NS(=O)(=O)c1ccc(N)cc1)C1CC2CCC1C2 (stereo not drawn),–,inconclusive: 5.51%
CC(NS(=O)(=O)c1ccc(NC(=O)N2CCCCC2)cc1)c1ccccc1 (stereo not drawn),"inconclusive: 6510 nM [activator, single point]",–
CN1C(=O)c2cccc3c(Cl)ccc(c23)C1=O,"inconclusive: 1840 nM [activator, partial curve, poor fit]",–
CCOC(=O)C1CCCN(CCC(=O)Nc2ccc(Br)cc2)C1 (stereo not drawn),–,inconclusive: -24%
COc1ccc(S(=O)(=O)N2CCN(C)CC2)cc1Br,–,inconclusive: 5.21%
CCn1c(=O)c(=O)[nH]c2c(=O)oc3ccc(S(=O)(=O)Nc4ccc(OC)cc4)cc3c21,active: 4610 nM,–
COc1ccc(CNC(=O)C(C)Sc2ccc(S(=O)(=O)N3CCOCC3)cn2)cc1 (stereo not drawn),–,inconclusive
Cc1sc2nc(CSC(C)C(=O)Nc3ccc(C#N)cc3)[nH]c(=O)c2c1C (stereo not drawn),–,inconclusive: 20.6%
Cc1occc1C(=O)Nc1ccc(OCc2ccccc2)cc1,–,inconclusive: -28.1%
COC(=O)c1cc(C(=O)OCC(=O)NC2CCS(=O)(=O)C2)cc([N+](=O)[O-])c1 (stereo not drawn),"inconclusive: 4.6 nM [cytotoxic, full curve, poor fit]",–
COc1cc(C(=O)NCC(=O)N/N=C/c2ccco2)cc(OC)c1OC,–,inconclusive: -80.1%
Cc1cc(-c2onc(C)c2C(N)=O)no1,–,inconclusive: -11.1%
O=C(CCCc1ccccc1)Nc1ccnn1C1CCN(Cc2ccccc2F)CC1,–,inconclusive: -3.94%
O=C(NC1CCCCC1)N1CCN(CCc2ccccc2)CC1,–,inconclusive: -15.7%
O=C(CSc1ncccc1C(=O)O)c1ccccc1,–,inconclusive: -12.1%
O=Cc1ccccc1-n1cccn1,–,inconclusive: 7.46%
CCOC(=O)c1c(NC(=O)CSc2nnnn2-c2ccc3c(c2)OCO3)sc(C)c1C,–,inconclusive: -24.6%
O=C(CNS(=O)(=O)c1ccc2ccccc2c1)Nc1ccc(F)c(F)c1F,"inconclusive: 20600 nM [activator, single point]",–
S=c1[nH]nc(COc2ccc(Cl)cc2Cl)n1-c1ccccc1,"inconclusive: 326 nM [activator, full curve, poor fit]",–
CCOc1ccc(OCCSc2nnnn2C2CCCCC2)cc1,–,inconclusive: 70.3%
CCOC(=O)c1nn(-c2ccc(C)cc2)cc1O,–,inconclusive: -2.62%
